The text below walks through data of paper PMC12398073.

Amino acid sequences for entries named in this document (tags omitted).
UniProt Q8BGW1: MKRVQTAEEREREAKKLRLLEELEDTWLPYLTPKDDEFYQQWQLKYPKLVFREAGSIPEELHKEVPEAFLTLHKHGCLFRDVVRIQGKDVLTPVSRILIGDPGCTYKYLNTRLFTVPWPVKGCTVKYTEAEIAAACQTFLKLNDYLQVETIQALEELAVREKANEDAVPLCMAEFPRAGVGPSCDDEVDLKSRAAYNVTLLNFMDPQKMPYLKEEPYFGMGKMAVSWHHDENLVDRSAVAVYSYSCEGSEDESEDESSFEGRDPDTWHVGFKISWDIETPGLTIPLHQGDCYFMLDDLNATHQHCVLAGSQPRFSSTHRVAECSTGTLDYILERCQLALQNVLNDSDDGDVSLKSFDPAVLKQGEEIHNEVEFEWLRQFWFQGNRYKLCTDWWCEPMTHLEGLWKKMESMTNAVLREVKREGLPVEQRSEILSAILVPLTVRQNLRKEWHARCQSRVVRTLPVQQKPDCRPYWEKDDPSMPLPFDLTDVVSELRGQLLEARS
UniProt Q9CPN8: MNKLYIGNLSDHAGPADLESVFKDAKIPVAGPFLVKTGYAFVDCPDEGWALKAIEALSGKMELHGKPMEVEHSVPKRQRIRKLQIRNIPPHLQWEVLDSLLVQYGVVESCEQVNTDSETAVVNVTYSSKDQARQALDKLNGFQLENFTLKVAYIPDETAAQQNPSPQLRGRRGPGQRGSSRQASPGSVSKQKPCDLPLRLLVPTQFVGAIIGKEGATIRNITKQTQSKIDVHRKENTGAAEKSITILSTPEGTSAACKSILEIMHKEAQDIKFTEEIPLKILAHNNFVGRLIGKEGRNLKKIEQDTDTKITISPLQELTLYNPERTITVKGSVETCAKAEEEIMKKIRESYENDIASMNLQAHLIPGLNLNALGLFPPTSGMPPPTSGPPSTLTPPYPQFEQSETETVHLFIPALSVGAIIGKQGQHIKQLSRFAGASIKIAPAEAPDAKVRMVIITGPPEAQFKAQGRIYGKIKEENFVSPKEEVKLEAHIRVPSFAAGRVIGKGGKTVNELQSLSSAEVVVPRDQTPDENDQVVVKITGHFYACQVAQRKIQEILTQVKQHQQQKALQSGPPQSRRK

Common to all, as to test: co-IP; 400 ug mouse cerebellum tissue lysate (E13.5, P3 and adult 16w; Fig. 6G-O) with 4 ug rabbit anti-FTO, anti-KAT8 or anti-IGF2BP3 (IgG as control) on protein A/G magnetic beads overnight at 4 °C; washed six times with PBS, 0.5% Tween-20; western blot; also done on Fto^KO tissue (Supplementary Fig. 6B; less FTO-KAT8)
(In general: Immunoblotting shows a protein as a band on a membrane.)

Assay [1] deals with T1, KAT8 (mouse (endogenous in cerebellum)) (UniProt Q9D1P2).
T1 sequence: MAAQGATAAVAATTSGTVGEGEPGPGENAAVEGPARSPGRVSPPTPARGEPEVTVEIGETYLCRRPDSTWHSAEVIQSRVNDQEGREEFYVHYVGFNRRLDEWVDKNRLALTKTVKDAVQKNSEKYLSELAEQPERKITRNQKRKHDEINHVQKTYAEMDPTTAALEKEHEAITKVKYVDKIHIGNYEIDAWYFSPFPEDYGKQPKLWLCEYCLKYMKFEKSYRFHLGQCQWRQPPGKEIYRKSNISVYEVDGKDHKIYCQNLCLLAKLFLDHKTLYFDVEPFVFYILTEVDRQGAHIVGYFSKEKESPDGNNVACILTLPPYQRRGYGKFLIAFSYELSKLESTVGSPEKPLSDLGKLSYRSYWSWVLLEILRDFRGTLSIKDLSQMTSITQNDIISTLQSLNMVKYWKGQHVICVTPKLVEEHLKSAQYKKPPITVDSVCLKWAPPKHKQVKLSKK

In assay [2] the target is FTO (mouse (endogenous in cerebellum)) (UniProt Q8BGW1).
In assay [3] the target is IGF2BP3 (mouse (endogenous in cerebellum)) (UniProt Q9CPN8).

No constants are given. Whether binding was seen depends on the method and setting. Binding seen in cells or lysates may run through a third protein. Some binding calls cover weakened binding; strength is not graded here.

Turning to IGF2BP3 (from UniProt Q9CPN8 1-579), the binding result in assay [1] is recorded as “binds”.

B1: KAT8 (protein, UniProt Q9D1P2 1-458)
chain: T1 sequence
As to B1, the binding result in assay [2] and in assay [3] was “binds” in each case.
